Laboratory results taken from US20180194836A1, “PREVENTION OF METASTASIS AND RECURRENCE AFTER PRIMARY CANCER TREATMENT” (ENCYT TECHNOLOGIES, INC., priority 2014, published 2018).

Test: Plasma cytokine levels before and after surgical removal of tumours (EMD Millipore kits, Luminex 200)
Assay type: in vivo, human

FGF2
FGF2 plasma level, Average, After (average of patients, after surgery): 139.7117

HIGF-1
HIGF-1 plasma level, Average, D14 (average of patients, Day 14 after surgery): 82540.14

HIGF-2
change of HIGF-2 levels vs. before surgery (after surgery and at Day 1, Day 2, Day 3 and Day 7 after surgery): Significant down-regulation of HIGF-2 levels after surgery and at Day 1, Day 2,

IL1B
change of IL1B levels vs. before surgery (after surgery and at Day 1 and Day 2 after surgery): Significant down-regulation of IL1B levels after surgery and at Day 1 and Day 2 | IL1B plasma level, Average, D3 (average of patients, Day 3 after surgery): 4.957 | IL1B plasma level, Average, D28 (average of patients, Day 28 after surgery): 5.995 | IL1B plasma level, Average, Before (average of patients, before surgery): 4.154

Il-8: cytokine IL-8 added to cultured CTCs
change of IL-8 levels vs. before surgery (after surgery): IL-8 levels are unchanged after surgery.
